Compound in the experiment: [O-][N+](C(C1=C(C(O)=C2)NC(C(C=C3)=CC=C3Cl)C4C1C=CC4)=C2Cl)=O
Kind of experiment: melting temperature shift (compound 7 minus DMSO); higher = compound stabilises the protein. Conditions: 10 µM. The method, then:
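Thermal proteome profiling (TMT mass spectrometry) in intact DAOY medulloblastoma cells or DAOY lysates treated with 10 µM compound 7 or DMSO, heated at 10 temperatures from 40.5 to 73.8 °C for 3 min. Melting curves were fitted with the Bioconductor TPP package, and the melting point difference between compound and vehicle is reported per protein (single curve per condition).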

Chains of the proteins cited; added tags and fusions are not shown. Lines headed by an entry give the natural chain unless they say otherwise; changes in a name come on top.
UniProt Q86X55: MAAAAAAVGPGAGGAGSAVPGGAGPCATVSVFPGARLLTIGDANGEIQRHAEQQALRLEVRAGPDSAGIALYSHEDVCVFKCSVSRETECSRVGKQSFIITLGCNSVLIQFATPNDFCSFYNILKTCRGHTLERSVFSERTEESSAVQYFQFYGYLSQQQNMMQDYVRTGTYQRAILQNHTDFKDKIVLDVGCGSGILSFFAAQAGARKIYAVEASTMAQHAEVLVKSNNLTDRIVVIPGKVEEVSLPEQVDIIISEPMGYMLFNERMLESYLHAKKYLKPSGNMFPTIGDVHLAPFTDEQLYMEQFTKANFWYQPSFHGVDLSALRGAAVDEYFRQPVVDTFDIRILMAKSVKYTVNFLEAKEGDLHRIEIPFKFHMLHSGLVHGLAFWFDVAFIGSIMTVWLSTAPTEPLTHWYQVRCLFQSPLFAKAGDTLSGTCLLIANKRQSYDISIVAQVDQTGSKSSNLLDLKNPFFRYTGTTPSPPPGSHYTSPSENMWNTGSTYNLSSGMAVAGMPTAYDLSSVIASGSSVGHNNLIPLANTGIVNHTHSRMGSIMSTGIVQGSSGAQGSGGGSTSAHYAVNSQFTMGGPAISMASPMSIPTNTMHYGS
UniProt P16949: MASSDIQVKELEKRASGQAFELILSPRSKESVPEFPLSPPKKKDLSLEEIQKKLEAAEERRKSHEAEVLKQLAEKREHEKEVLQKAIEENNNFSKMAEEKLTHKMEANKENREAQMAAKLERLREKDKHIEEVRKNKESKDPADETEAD
UniProt P40692: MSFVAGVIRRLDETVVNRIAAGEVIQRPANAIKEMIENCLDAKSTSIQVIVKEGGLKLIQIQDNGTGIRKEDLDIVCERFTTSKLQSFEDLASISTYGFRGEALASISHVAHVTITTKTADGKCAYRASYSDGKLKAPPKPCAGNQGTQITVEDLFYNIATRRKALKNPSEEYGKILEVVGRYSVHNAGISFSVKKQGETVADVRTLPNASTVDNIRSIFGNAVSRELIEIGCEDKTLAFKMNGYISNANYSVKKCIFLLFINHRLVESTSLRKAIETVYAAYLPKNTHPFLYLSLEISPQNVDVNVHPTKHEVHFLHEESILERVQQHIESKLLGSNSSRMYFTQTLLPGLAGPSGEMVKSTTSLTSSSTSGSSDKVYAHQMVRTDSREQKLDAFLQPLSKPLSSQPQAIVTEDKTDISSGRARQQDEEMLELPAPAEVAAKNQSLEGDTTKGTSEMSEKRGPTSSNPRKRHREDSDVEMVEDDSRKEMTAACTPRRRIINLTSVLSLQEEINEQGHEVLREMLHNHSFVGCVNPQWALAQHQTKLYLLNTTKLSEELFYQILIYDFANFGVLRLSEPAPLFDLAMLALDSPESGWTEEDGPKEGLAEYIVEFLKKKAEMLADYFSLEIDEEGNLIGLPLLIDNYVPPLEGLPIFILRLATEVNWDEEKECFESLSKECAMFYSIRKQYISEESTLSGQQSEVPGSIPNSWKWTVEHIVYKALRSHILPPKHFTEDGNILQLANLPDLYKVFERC
UniProt Q13641: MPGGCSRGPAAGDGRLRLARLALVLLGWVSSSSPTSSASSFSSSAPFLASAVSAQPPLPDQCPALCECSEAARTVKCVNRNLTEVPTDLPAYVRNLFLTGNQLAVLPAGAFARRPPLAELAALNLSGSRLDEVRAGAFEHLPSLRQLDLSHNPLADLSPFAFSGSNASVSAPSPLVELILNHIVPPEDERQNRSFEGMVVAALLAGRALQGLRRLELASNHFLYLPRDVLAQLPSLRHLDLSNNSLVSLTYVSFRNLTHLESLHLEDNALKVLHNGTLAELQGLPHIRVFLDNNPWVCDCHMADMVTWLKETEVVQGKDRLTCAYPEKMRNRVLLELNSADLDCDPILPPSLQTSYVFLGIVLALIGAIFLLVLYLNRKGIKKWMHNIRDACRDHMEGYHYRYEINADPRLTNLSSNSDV
UniProt Q96EC8: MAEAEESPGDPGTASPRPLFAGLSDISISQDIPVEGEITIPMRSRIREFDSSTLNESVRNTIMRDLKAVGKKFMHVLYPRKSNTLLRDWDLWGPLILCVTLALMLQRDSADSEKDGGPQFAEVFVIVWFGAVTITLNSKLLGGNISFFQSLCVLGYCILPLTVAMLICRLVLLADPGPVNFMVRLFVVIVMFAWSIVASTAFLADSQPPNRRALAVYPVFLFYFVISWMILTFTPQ
UniProt P62699: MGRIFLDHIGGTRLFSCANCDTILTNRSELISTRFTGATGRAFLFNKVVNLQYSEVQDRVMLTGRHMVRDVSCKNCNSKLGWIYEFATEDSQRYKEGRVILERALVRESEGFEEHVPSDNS
UniProt Q5T440: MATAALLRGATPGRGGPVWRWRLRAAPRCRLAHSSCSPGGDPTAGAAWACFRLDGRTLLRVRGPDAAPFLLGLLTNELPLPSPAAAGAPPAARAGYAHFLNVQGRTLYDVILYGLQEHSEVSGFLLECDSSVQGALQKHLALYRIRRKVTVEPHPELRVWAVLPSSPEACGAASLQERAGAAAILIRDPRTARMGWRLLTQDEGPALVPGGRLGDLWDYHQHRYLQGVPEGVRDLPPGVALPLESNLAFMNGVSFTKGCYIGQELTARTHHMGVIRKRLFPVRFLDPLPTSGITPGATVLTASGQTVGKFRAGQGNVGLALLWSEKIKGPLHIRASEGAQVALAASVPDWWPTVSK
UniProt Q9NQS7, whole entry: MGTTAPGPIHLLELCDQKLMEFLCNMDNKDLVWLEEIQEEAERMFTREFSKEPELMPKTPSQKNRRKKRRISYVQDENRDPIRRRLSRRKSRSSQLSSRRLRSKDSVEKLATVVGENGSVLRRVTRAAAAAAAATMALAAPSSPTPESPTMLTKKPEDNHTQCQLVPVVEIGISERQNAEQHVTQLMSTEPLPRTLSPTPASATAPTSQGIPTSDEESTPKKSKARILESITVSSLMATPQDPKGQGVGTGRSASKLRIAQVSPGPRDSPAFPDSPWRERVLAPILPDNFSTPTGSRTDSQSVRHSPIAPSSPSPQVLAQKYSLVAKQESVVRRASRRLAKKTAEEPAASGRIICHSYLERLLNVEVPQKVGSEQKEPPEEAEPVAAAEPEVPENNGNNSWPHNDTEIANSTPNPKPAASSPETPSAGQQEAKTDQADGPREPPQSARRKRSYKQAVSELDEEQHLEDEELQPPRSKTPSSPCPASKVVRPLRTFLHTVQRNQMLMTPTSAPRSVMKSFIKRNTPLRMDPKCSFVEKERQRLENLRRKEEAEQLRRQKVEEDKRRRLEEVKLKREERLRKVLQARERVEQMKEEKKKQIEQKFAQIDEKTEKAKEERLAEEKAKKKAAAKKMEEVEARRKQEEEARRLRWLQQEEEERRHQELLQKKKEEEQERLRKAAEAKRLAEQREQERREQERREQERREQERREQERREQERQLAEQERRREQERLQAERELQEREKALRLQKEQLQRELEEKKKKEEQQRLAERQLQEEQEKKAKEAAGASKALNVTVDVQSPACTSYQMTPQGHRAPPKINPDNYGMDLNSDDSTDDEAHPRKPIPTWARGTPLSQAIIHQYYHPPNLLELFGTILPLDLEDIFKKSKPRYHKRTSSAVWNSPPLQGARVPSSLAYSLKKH
UniProt Q9P0L0: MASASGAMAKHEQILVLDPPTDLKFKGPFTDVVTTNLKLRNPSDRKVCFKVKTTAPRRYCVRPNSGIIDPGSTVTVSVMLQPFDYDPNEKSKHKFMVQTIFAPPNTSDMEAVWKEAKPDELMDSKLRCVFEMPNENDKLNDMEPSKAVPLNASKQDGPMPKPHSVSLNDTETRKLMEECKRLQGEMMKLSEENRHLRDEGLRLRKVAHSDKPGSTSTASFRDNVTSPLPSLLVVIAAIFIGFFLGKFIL
UniProt Q9BQP7: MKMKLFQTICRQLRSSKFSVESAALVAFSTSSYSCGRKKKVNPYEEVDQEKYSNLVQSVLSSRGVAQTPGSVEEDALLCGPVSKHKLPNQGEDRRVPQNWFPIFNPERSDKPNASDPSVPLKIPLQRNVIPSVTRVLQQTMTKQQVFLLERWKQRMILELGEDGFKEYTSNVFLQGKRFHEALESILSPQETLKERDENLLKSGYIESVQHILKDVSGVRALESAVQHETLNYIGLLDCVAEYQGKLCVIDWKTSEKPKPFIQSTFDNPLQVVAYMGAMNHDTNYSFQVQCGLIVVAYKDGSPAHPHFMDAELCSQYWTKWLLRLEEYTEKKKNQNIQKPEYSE
UniProt Q86WR0: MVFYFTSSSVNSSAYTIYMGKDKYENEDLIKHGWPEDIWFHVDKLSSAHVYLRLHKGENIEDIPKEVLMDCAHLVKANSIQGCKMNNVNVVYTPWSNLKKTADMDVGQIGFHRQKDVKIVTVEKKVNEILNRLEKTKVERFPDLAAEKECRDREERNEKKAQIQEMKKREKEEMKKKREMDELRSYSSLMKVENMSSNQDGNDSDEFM
UniProt Q9UL54: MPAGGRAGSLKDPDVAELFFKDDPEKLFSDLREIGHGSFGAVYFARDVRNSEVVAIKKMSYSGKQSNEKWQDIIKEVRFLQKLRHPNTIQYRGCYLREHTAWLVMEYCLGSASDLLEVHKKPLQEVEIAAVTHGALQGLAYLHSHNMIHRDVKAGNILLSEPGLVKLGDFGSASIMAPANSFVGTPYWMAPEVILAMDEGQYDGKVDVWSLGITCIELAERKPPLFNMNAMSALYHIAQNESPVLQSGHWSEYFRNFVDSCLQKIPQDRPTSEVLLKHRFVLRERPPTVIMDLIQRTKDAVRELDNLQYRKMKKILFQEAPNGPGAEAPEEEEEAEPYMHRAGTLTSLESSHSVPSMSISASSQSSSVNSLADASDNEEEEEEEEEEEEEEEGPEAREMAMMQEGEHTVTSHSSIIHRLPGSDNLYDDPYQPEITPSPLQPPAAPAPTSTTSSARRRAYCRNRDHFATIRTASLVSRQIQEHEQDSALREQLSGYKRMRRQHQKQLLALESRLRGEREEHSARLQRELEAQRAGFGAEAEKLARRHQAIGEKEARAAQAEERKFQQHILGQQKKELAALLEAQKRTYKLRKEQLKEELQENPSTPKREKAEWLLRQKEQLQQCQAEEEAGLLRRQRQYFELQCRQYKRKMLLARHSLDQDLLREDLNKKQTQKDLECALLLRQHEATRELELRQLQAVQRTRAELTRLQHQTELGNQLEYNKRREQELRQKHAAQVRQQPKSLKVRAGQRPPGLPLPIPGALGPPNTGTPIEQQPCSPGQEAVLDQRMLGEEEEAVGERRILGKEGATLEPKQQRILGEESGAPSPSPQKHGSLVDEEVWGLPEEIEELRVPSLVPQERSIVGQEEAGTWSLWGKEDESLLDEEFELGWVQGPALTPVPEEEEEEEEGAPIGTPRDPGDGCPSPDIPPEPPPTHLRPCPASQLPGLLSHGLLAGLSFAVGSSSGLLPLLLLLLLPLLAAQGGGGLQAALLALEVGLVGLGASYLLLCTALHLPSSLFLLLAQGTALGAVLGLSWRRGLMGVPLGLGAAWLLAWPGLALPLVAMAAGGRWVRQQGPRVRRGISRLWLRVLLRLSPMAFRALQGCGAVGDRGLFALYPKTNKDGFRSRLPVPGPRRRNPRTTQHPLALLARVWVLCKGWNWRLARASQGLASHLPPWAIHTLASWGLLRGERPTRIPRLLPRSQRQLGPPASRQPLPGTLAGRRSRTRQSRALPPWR
UniProt Q6PK18: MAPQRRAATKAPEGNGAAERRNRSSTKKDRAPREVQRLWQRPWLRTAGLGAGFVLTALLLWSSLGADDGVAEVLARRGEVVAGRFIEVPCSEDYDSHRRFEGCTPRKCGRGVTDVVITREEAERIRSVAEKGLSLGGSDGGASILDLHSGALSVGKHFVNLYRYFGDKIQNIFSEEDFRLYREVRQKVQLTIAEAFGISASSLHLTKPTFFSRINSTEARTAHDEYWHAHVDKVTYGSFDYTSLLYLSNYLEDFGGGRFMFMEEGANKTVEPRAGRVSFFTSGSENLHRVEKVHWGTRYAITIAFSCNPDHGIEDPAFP

Where [1] appears, read: system: intact DAOY cells, treatment time: 90 min, 37 °C.
The mark [2] stands for this setting: system: DAOY cell lysate, treatment time: 20 min, 4 °C.

Single values are uncertain, as repeats are few or missing.

Regarding POP7 (UniProt O75817), under setting [1], the melting temperature shift is -2.17 °C.

As for KANK2 (UniProt Q63ZY3), the melting temperature shift under setting [2] was -0.126 °C.

For RAB10 (UniProt P61026), the melting temperature shift is 0.584 °C under setting [2] and -0.921 °C under setting [1].

Regarding RANBP2 (UniProt P49792), the melting temperature shift by setting is: under setting [2], -0.542 °C; under setting [1], 1.13 °C.

With SMYD4 (UniProt Q8IYR2), the melting temperature shift was -3.04 °C under setting [2] and -0.76 °C under setting [1].

Take SPRYD4 (UniProt Q8WW59): the melting temperature shift runs as follows: under setting [2], 0.571 °C; under setting [1], -0.531 °C.

Consider UniProt Q9NXL2, for which the melting temperature shift under setting [1] was 1.5 °C.

Take CARM1 (UniProt Q86X55): the melting temperature shift is, setting by setting: under setting [2], -0.104 °C; under setting [1], 0.415 °C.

Turning to SLC25A15 (UniProt Q9Y619), the melting temperature shift is 2.6 °C under setting [2] and -1.81 °C under setting [1].

As for CD109 (UniProt Q6YHK3), the melting temperature shift by setting is: under setting [2], -1 °C; under setting [1], -1.02 °C.

With STMN1 (UniProt P16949), under setting [2], the melting temperature shift was -3.73 °C.

Take TEX264 (UniProt Q9Y6I9): the melting temperature shift was 1.89 °C under setting [2] and -0.145 °C under setting [1].

With MICU2 (UniProt Q8IYU8), the melting temperature shift by setting is: under setting [2], 0.741 °C; under setting [1], -1.65 °C.

Consider RRBP1 (UniProt Q9P2E9), for which the melting temperature shift by setting is: under setting [2], 1.55 °C; under setting [1], -0.332 °C.

With MLH1 (UniProt P40692), the melting temperature shift under setting [2] is -1.96 °C and the melting temperature shift under setting [1] is 1.79 °C.

For the target TPBG (UniProt Q13641), the melting temperature shift under setting [2] was -0.376 °C.

In the case of UniProt Q96EC8, the melting temperature shift under setting [2] stood at 3.64 °C.

As to UniProt Q96HR3, the melting temperature shift under setting [1] was found to be 1.03 °C.

Take UniProt A6NNP5: the melting temperature shift under setting [1] is 1.63 °C.

Take UniProt P09486: under setting [2], the melting temperature shift worked out at 1.26 °C.

For CASK (UniProt O14936), the melting temperature shift by setting is: under setting [2], -0.202 °C; under setting [1], -0.0459 °C.

Regarding EPHA2 (UniProt P29317), the melting temperature shift is, setting by setting: under setting [2], 1.91 °C; under setting [1], 0.0953 °C.

Consider NUP43 (UniProt Q8NFH3), for which the melting temperature shift reads like this: under setting [2], -0.949 °C; under setting [1], -1.96 °C.

In the case of AGPAT1 (UniProt Q99943), the melting temperature shift amounted to 0.962 °C under setting [2] and 1.48 °C under setting [1].

Regarding OPA3 (UniProt Q9H6K4), the melting temperature shift under setting [2] turned out to be 1.38 °C.

As for YPEL5 (UniProt P62699), the melting temperature shift under setting [2] came out at 0.0726 °C and the melting temperature shift under setting [1] came out at 1.39 °C.

Take UniProt Q9BXT5: the melting temperature shift under setting [1] was 0.569 °C.

Consider UniProt P17252, for which the melting temperature shift reads like this: under setting [2], -0.437 °C; under setting [1], -2.04 °C.

Turning to SLC25A5 (UniProt P05141), the melting temperature shift reads like this: under setting [2], 2.03 °C; under setting [1], 0.737 °C.

Turning to IBA57 (UniProt Q5T440), the melting temperature shift under setting [1] turned out to be 1.89 °C.

RPL12 (UniProt P30050): the melting temperature shift runs as follows: under setting [2], -0.308 °C; under setting [1], 1.49 °C.

For the target RAC1 (UniProt P63000), the melting temperature shift is, setting by setting: under setting [2], 0.414 °C; under setting [1], 0.205 °C.

For UniProt Q9NQS7, the melting temperature shift under setting [2] was 0.795 °C.

In the case of UniProt Q16777, the melting temperature shift under setting [1] is -1.11 °C.

NAA35 (UniProt Q5VZE5): the melting temperature shift was 0.956 °C under setting [2] and -0.764 °C under setting [1].

Regarding HNRNPH1 (UniProt P31943), the melting temperature shift under setting [2] is 0.424 °C and the melting temperature shift under setting [1] was -0.621 °C.

For the target NAP1L1 (UniProt P55209), the melting temperature shift is -0.0761 °C under setting [2] and 0.398 °C under setting [1].

Consider LAP3 (UniProt P28838), for which the melting temperature shift was 0.0169 °C under setting [2] and -1.61 °C under setting [1].

As to ACOT13 (UniProt Q9NPJ3), the melting temperature shift reads like this: under setting [2], 0.83 °C; under setting [1], -0.752 °C.

In the case of UniProt P35612, the melting temperature shift was -0.0999 °C under setting [2] and 0.631 °C under setting [1].

PDCD6IP (UniProt Q8WUM4): the melting temperature shift by setting is: under setting [2], -0.327 °C; under setting [1], 0.036 °C.

On to MGRN1 (UniProt O60291), for which, under setting [1], the melting temperature shift is -0.101 °C.

For the target VAPA (UniProt Q9P0L0), the melting temperature shift is, setting by setting: under setting [2], 2.07 °C; under setting [1], -0.394 °C.

With MGME1 (UniProt Q9BQP7), the melting temperature shift reads like this: under setting [2], -0.407 °C; under setting [1], -0.0517 °C.

As to GNL2 (UniProt Q13823), the melting temperature shift under setting [2] was 0.41 °C.

Take SRSF5 (UniProt Q13243): under setting [2], the melting temperature shift is 0.289 °C.

Turning to PURB (UniProt Q96QR8), the melting temperature shift under setting [2] is -1.54 °C and the melting temperature shift under setting [1] is -0.486 °C.

As to UniProt Q96CB8, the melting temperature shift reads like this: under setting [2], -0.45 °C; under setting [1], 0.149 °C.

For the target CCDC25 (UniProt Q86WR0), the melting temperature shift is, setting by setting: under setting [2], -0.218 °C; under setting [1], 0.396 °C.

For TAOK2 (UniProt Q9UL54), under setting [2], the melting temperature shift was -3.11 °C.

Turning to EPHA5 (UniProt P54756), the melting temperature shift under setting [1] was found to be 0.397 °C.

Regarding FAM134C (UniProt Q86VR2), the melting temperature shift reads like this: under setting [2], 3.79 °C; under setting [1], -3.02 °C.

For the target CAP1 (UniProt Q01518), the melting temperature shift by setting is: under setting [2], -0.133 °C; under setting [1], -0.07 °C.

On to ST7 (UniProt Q9NRC1), for which the melting temperature shift under setting [1] is -0.148 °C.

For the target UniProt Q9NRW1, the melting temperature shift runs as follows: under setting [2], 1.63 °C; under setting [1], -2.46 °C.

Regarding CDC42EP4 (UniProt Q9H3Q1), the melting temperature shift is, setting by setting: under setting [2], 0.208 °C; under setting [1], 0.0859 °C.

As to ALDH6A1 (UniProt Q02252), the melting temperature shift reads like this: under setting [2], -2.76 °C; under setting [1], 1.74 °C.

As to SH3BGRL3 (UniProt Q9H299), the melting temperature shift is, setting by setting: under setting [2], 0.481 °C; under setting [1], 0.0491 °C.

As to OGFOD3 (UniProt Q6PK18), the melting temperature shift under setting [2] amounted to 3.01 °C.

Consider UniProt Q92614, for which the melting temperature shift under setting [2] was -1.51 °C.

On to BLOC1S3 (UniProt Q6QNY0), for which, under setting [2], the melting temperature shift was -2.22 °C.

Consider UniProt P62314, for which the melting temperature shift reads like this: under setting [2], 0.319 °C; under setting [1], 1.9 °C.

Take BAG1 (UniProt Q99933): the melting temperature shift under setting [2] was 0.755 °C and the melting temperature shift under setting [1] is -0.477 °C.

For UBR4 (UniProt Q5T4S7), the melting temperature shift by setting is: under setting [2], -0.557 °C; under setting [1], -0.403 °C.

For UniProt P52895, under setting [2], the melting temperature shift is -0.143 °C.

As for MTHFD1 (UniProt P11586), the melting temperature shift reads like this: under setting [2], -0.64 °C; under setting [1], -1.01 °C.

Take ATG4B (UniProt Q9Y4P1): the melting temperature shift is, setting by setting: under setting [2], -1.31 °C; under setting [1], 0.687 °C.

For the target MED7 (UniProt O43513), under setting [2], the melting temperature shift was -2.17 °C.

On to HCK (UniProt P08631), for which, under setting [1], the melting temperature shift was determined as 0.345 °C.
